For the series the following is noted: 308.15 K; 100 kPa; Liquid; Vibrating tube method.

Numbers after ± are expanded uncertainties.

What is called mass density is mass per unit of volume. In the case of `O` [water], the mass density was determined as 994.061 ± 2 kg/m3.

The values above are taken from the NIST ThermoML archive (doi:10.1021/acs.jced.8b00370).
